Literature values in patent US20240285502A1, “HAIR GROWTH AGENT” (ADJUVANT HOLDINGS CO., LTD., priority 2021, published 2024).
For at least one compound, name, drawing or mass did not settle the structure.

Test system: vascular endothelial growth factor (VEGF) expression in dermal papilla cells
Details: cited from earlier work

In the case of `Nc1cc(N2CCCCC2)nc(N)[n+]1[O-]` [minoxidil], the “expression of vascular endothelial growth factor (VEGF)” value is listed as “promotes expression of vascular endothelial growth factor (VEGF)”.
